# Reference: patent US10456407B2, “Combination therapy for treating cancer” (Epizyme, Inc., priority 2015, dated 2019)
# For at least one compound, name, drawing or mass did not settle the structure.
# Tested on: RP-R-02LM ccRCC PDX
# Assay type: in vivo
smiles,measurement,setting,value
CCN(CC)CCNC(=O)c1c(C)[nH]c(/C=C2\C(=O)Nc3ccc(F)cc32)c1C [sunitinib],"lung metastasis (tumor nodules in lungs, H&E)",lung tissues,decrease in metastasis
same,vessel density (mCD31 stain),tumors at primary site,decreased in vessel density
